Test: peptide synthesis
Details: conjugation step, C18 RP-HPLC (Betasil) on Agilent 1100

Row | Substance | purity (crude or final not stated) | final HPLC purity
1 | N^εB29-{3-[methoxy(ethoxy)750]proprionyl}insulin | 99% | 
2 | N^αB1-{3-[methoxy(ethoxy)5K]propionyl}insulin | 80% | 
3 | N^αB1-{3-[methoxy(ethoxy)2K]propionyl}insulin |  | >97%
4 | N^αB1-{3-[methoxy(ethoxy)3K]propionyl}insulin |  | >97%
5 | N^εB29-{3-[methoxy(ethoxy)2K]propionyl}insulin | 98% | 

From patent publication US20110171312A1 (Nektar Therapeutics, priority 2008, published 2011)
